Values from PubChem BioAssay AID1259405 (NCATS, 2018)
Purpose: 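Knock-downs that lift recombinant protein yield in hamster ovary cells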 (primary screen). System: Chinese hamster CHO-K1 ovary cells with stable secreted eGFP expression. Knock-down reagent: single siRNA against mouse genes, 0.8 pmol siRNA per well (2 µl of 400 nM stock). Duration: 3 days. Read-out: 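Percent of the per-plate non-targeting control median for intracellular GFP per well by laser scanning cytometry and for cell viability by ATP luminescence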. Scale: GFP, % of control: higher = more GFP per well, higher productivity; viability (ATP), % of control: higher = more viable cells (more ATP). Active means: 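Called active when intracellular GFP, relative to negative control, is at or above 120%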.
Shown is an unselected part of about 50,000 reagents. In the full data, about 4,000 (8%) were called active. 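Mouse siRNA library applied to hamster cells; one well for each siRNA.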 Entries without a mark were called inactive. The numbers tell different reagents against one gene apart.

The opening 6 records, to show the layout:
no.	gene symbol	siRNA no.	GFP, % of control	viability (ATP), % of control
1	Bnip5	1	106	68.8
2	Bnip5	2	64.2	44.2
3	Bnip5	3	81.6	85.5
4	Ppp4r2	1	88.2	119
5	Ppp4r2	2	83.1	57.9
6	Sec22b	1	43.8	58.9

Results, from the first entry:
no.	gene symbol	siRNA no.	GFP, % of control	viability (ATP), % of control
1	Bnip5	1	106	68.8
2	Bnip5	2	64.2	44.2
3	Bnip5	3	81.6	85.5
4	Ppp4r2	1	88.2	119
5	Ppp4r2	2	83.1	57.9
6	Sec22b	1	43.8	58.9
7	Sec22b	2	78	45.3
8	Sec22b	3	105	89.4
9	Prune1	1	117	47.1
10	Prune1	2	32.5	16.8
11	Prune1	3	70.6	73
12	Tbpl1	1	68.1	72.1
13	Tbpl1	2	66.7	79.2
14	Tbpl1	3	68.9	93.6
15	Tmem100	1	64.2	83.9
16	Tmem100	2	93.7	94.7
17	Tmem100	3	43	69.4
18	Gstm5	1	82	75.4
19	Gstm5	2	61.8	104
20	Gstm5	3	120 (active)	97.1
21	Serpind1	1	21.7	36.8
22	Serpind1	2	44.6	67.6
23	Serpind1	3	64.3	83.8
24	Atp8b5	1	104	128
25	Atp8b5	2	88.3	70.7
26	Atp8b5	3	86.9	82.4
27	Susd6	1	73	57.3
28	Susd6	2	56.7	86.3
29	Susd6	3	81.4	88.7
30	Bcs1l	1	137 (active)	78.2
31	Bcs1l	2	76.4	80.3
32	Bcs1l	3	87.9	104
33	Csf3r	1	108	96.4
34	Csf3r	2	50.3	56.2
35	Csf3r	3	71.1	46.8
36	Or2p2	1	81.2	80.7
37	Or2p2	2	82.4	68.5
38	Or2p2	3	35.5	65.5
39	Wdr5b	1	43.2	22
40	Wdr5b	2	99.1	77.6
41	Wdr5b	3	70.7	98.7
42	Gm5800	1	38.4	42.3
43	Gm5800	2	102	43.6
44	Gm5800	3	103	45.1
45	Slc6a20a	1	88.3	79.1
46	Slc6a20a	2	93	83
47	Slc6a20a	3	92.7	75.4
48	Or8g30	1	62.4	60.9
49	Or8g30	2	65	62.9
50	Or8g30	3	66.7	121
51	Ppp1r8	1	137 (active)	71.6
52	Ppp1r8	2	116	105
53	Ppp1r8	3	108	76.4
54	Vmn1r178	1	104	41.8
55	Vmn1r178	2	69.5	59.8
56	Vmn1r178	3	82.2	88.9
57	Nlrp4g	1	86.4	77.3
58	Nlrp4g	2	133 (active)	111
59	Nlrp4g	3	110	92.3
60	Unc93a	1	109	76.4
61	Unc93a	2	55.5	39
62	Unc93a	3	64.3	58.1
63	Pex2	1	116	65.9
64	Pex2	2	45	64.5
65	Pex2	3	79	93.5
66	Exo5	1	91.7	98.7
67	Exo5	2	232 (active)	113
68	Exo5	3	78.7	81.8
69	Exo5	4	90.2	129
70	Exo5	5	91.9	109
71	Exo5	6	83.1	100
72	Brme1	1	94.9	109
73	Brme1	2	174 (active)	84.8
74	Brme1	3	48.4	72.3
75	Ndufa5	1	75.7	98.7
76	Ndufa5	2	76	70
77	Eif2b5	1	125 (active)	115
78	Eif2b5	2	118	81.5
79	Eif2b5	3	85.2	82.3
80	Vpreb3	1	158 (active)	66.8
81	Vpreb3	2	69.1	58.4
82	Vpreb3	3	100	77.6
83	Pals1	1	67.9	81
84	Rer1	1	71.4	106
85	Rer1	2	63.6	61.6
86	Rer1	3	71.5	72.8
